## Percent effect of library compounds

The chains behind the UniProt entries cited, without tags or fusion partners. Residues count along the entry.
UniProt Q8IDJ8, 1-583: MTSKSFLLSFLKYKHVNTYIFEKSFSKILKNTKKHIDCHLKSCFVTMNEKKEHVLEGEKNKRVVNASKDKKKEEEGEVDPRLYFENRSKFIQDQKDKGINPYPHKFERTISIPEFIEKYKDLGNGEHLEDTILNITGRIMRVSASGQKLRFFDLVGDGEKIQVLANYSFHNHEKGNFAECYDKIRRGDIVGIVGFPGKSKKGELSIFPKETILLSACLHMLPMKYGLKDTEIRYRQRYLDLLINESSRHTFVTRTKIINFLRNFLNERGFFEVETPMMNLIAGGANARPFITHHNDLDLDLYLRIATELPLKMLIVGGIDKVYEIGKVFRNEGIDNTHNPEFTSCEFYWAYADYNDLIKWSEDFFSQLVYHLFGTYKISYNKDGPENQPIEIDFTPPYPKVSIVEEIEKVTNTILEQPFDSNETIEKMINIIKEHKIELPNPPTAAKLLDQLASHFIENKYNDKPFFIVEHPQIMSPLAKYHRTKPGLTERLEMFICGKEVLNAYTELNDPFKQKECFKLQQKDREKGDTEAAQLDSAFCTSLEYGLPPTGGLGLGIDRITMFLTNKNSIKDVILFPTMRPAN

Source: ChEMBL document CHEMBL3988442, “University of Dundee, Small-Polar-MMV Screening Library” (2021).

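Lysine-tRNA ligase, Plasmodium falciparum 3D7 (UniProt Q8IDJ8). Enzyme assay of the cytosolic lysyl-tRNA synthetase in 384-well plates, read by luminescence. Tested at 30 µM. Direction is inferred from only a few compounds that gave an IC50; most scored high, so higher reads as stronger inhibition. About 69,000 compounds were tested under these conditions; 0.071% (about 49) showed 50% or more at least once.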

Results are given as percent effect. The controls that fix the scale are not given in the record; negative values are as filed. Compounds were drawn at random from those tested, without regard to their results.

Compound	percent effect
CC(CS(C)(=O)=O)NCc1cc(Cl)ccc1F (stereo unspecified)	4.347%
CCS(=O)(=O)CC(=O)Nc1cccc2c1CN(CC(C)C)C2	1.61%
CCOc1ccc(N2CCCN=C2NC(=O)c2cccc(Cl)c2)cc1	0.02189%
CCC[C@H]1CN(C(=O)CCn2ccccc2=O)C[C@@H]1NS(C)(=O)=O	6.784%
CC(Cn1cccn1)NCc1nc(-c2ccccn2)no1 (stereo unspecified)	0.5027%
Cc1ccc(N2CCCN(C(=O)C(C)OCC3CC3)CC2)nn1 (stereo unspecified)	4.415%
NC(=O)N1CCCC(C(=O)N2CCc3c(nc(CC4CC4)[nH]c3=O)C2)C1 (stereo unspecified)	1.577%
CCN(CC)C(=O)Cn1ccc2cc(NC(=O)C3CC3)ccc21	4.135%
CN(C)C(=O)CN1CCC2(CCN(C(=O)N3CCCC3)CC2)C1=O	8.876%
Cn1c(CN2CCCC(c3noc(C4CC4)n3)C2)cc(=O)n(C)c1=O (stereo unspecified)	0.8115%
CN(C)C(=O)N1C[C@@H]2CC[C@H](C1)N(C(=O)c1cccc(N(C)C)c1)C2	3.648%
CC(O)CN1CCC(CNCc2ccccc2F)CC1 (stereo unspecified)	1.521%
N#Cc1cccc(OCCN2CCCC2C(=O)NCC(F)(F)F)c1 (stereo unspecified)	7.22%
O=C(CC1CCc2ccccc21)NC1(C(=O)O)CCCC1 (stereo unspecified)	-0.3747%
O=C(c1ccnnc1)N1C[C@H](Oc2ccccn2)[C@H]2OCCC[C@H]21	-0.3282%
Cc1noc(C)c1-c1ccnc(C2CCN(S(=O)(=O)N(C)C)CC2)c1	3.115%
Cc1ccc(N(C)[C@@H]2CC[C@@H]3CN(C(=O)C4CCOCC4)C[C@@H]32)nn1	2.41%
O=C1CC2(CCN(CC3CC3)CC2)CN1Cc1cc(F)cc(F)c1	0.8722%
CC(NC(=O)NCC1(N2CCCCC2)CCCCC1)c1nncn1C (stereo unspecified)	-1.245%
O=C(C1CCOCC1)N1C[C@H]2CCC[C@@]2(COCc2ccccn2)C1	1.998%
COC(=O)CNC(=O)c1nc(Cl)sc1C(C)C	-3.965%
COCCn1cnnc1Cn1ccnc1-c1ccsc1	0.9811%
COCC1CN(CCc2ccc(OC)c(OC)c2)Cc2c1cnn2C (stereo unspecified)	-0.02388%
Cc1nc(CN2CCc3cc(C(=O)O)c(N(C)C)nc3CC2)cs1	0.4953%
Cc1cccc(C2CCCN(C(=O)c3ccncc3)C2)n1 (stereo unspecified)	4.815%
COc1cc(CO)ccc1OCc1nc(C(C)C)no1	1.381%
O=C(CN1CCCCC1)Nc1cc(C(F)(F)F)ccc1-n1cccc1	4.784%
C1CC(CN2CC[C@@H]3O[C@@H](c4nnc(C5CC5)o4)C[C@H]3C2)CCO1	-4.104%
Cc1ccccc1CC(=O)N1C[C@@H]2COC[C@]2(CN(C)C)C1	3.743%
CNC(=O)c1n[nH]c2c1C(c1cccc3[nH]ccc13)CC(=O)N2 (stereo unspecified)	9.112%
CC(C)CS(=O)(=O)Nc1ccc([C@H]2OCC(=O)N[C@@H]2CO)cc1	4.161%
CCc1ncnc(N2CCOCC2C2CC2)c1F (stereo unspecified)	-1.793%
COc1ccc(CN(C(=O)C2CCOCC2)c2ccncc2)cc1	-1.543%
CCOc1ccc(C(=O)NCc2ccnc(N3CCN(C)CC3)c2)cn1	3.531%
C=C(C)COc1ccc(C(=O)NCCn2c(C)cc(C)nc2=O)cc1	6.403%
COCCN1CCCC(O)(CN2CCN(c3ncccc3C)CC2)C1=O (stereo unspecified)	0.5319%
c1ccc(NCc2cn3c(n2)CN(Cc2nccs2)CC3)nc1	6.703%
Cn1cnnc1C1CCN(C(=O)c2cc(-c3ccccc3)on2)CC1	-0.5603%
Cc1nocc1C(=O)N1CCOC2(COCCN(C(C)C)C2)C1 (stereo unspecified)	3.131%
CCc1cnc(CN(C)C2CCN(CCS(C)(=O)=O)C2)o1 (stereo unspecified)	3.154%
O=C1[C@H]2CN(Cc3ccco3)C[C@H]2CN1c1cncnc1	4.668%
CCc1ccc(C(=O)N2CCCC(n3cncn3)C2)o1 (stereo unspecified)	-1.911%
COC(=O)c1cccc(S(=O)(=O)NC(=O)COC2CCCC2)c1	1.287%
COc1ccc(CN2CCC(c3nccnc3-n3ccnc3)CC2)cc1	-0.7987%
COc1ccc(F)c(-c2ncccc2C(=O)N2C[C@H]3CC[C@@H]2C3)c1	1.918%

Repeated from the top, 2 entries:

For CC(CS(C)(=O)=O)NCc1cc(Cl)ccc1F (stereo unspecified) the result was 4.347%.
For CCS(=O)(=O)CC(=O)Nc1cccc2c1CN(CC(C)C)C2 the result was 1.61%.